From PMC7296103, “Live Cell Imaging Demonstrates Multiple Routes Toward a STAT1 Gain-of-Function Phenotype” (Frontiers in Immunology, 2020)
Where a chain is given by its changes, count along the chain named. In names and notes the source's numbering stands. These are yes or no findings as the source states them, for the method shown. Some entries that bind do so weakly or less than the wild type.

Assays:
STAT1-GFP E411A = STAT1-GFP E411A (UniProt P42224); assay: raster image correlation spectroscopy (RICS), molecular brightness; living U3A cells after IFNγ (1 U/μl, 1 h), 37°C; cytoplasm; brightness as fold of cytoplasmic STAT1 WT
STAT1-GFP Y701A = STAT1-GFP Y701A (UniProt P42224); assay: as above
STAT1-GFP R274W [1] = molecular target: STAT1-GFP R274W (UniProt P42224); assay: as above
STAT1-GFP R274W [2] = molecular target: STAT1-GFP R274W (UniProt P42224); assay: raster image correlation spectroscopy (RICS), molecular brightness; living U3A cells, unstimulated, 37°C; cytoplasm and nucleus; brightness of STAT1-GFP compared with monomeric GFP
STAT1-GFP R321S = STAT1-GFP R321S (UniProt P42224); assay: as above
STAT1-GFP N574I = STAT1-GFP N574I (UniProt P42224); assay: as above
STAT1-GFP T419R = STAT1-GFP T419R (UniProt P42224); assay: as above

B1: STAT1-GFP E411A (natural protein, UniProt P42224 1-750, looked up)
chain: MSQWYELQQLDSKFLEQVHQLYDDSFPMEIRQYLAQWLEKQDWEHAANDVSFATIRFHDLLSQLDDQYSRFSLENNFLLQHNIRKSKRNLQDNFQEDPIQMSMIIYSCLKEERKILENAQRFNQAQSGNIQSTVMLDKQKELDSKVRNVKDKVMCIEHEIKSLEDLQDEYDFKCKTLQNREHETNGVAKSDQKQEQLLLKKMYLMLDNKRKEVVHKIIELLNVTELTQNALINDELVEWKRRQQSACIGGPPNACLDQLQNWFTIVAESLQQVRQQLKKLEELEQKYTYEHDPITKNKQVLWDRTFSLFQQLIQSSFVVERQPCMPTHPQRPLVLKTGVQFTVKLRLLVKLQELNYNLKVKVLFDKDVNERNTVKGFRKFNILGTHTKVMNMEESTNGSLAAEFRHLQLKAQKNAGTRTNEGPLIVTEELHSLSFETQLCQPGLVIDLETTSLPVVVISNVSQLPSGWASILWYNMLVAEPRNLSFFLTPPCARWAQLSEVLSWQFSSVTKRGLNVDQLNMLGEKLLGPNASPDGLIPWTRFCKENINDKNFPFWLWIESILELIKKHLLPLWNDGCIMGFISKERERALLKDQQPGTFLLRFSESSREGAITFTWVERSQNGGEPDFHAVEPYTKKELSAVTFPDIIRNYKVMAAENIPENPLKYLYPNIDKDHAFGKYYSRPKEAPEPMELDGPKGTGYIKTELISVSEVHPSRLQTTDNLLPMSPEEFDEVSRIVGSVEFDSMMNTV
notes: Artificial mutation, not reported in patients; also called STAT1E411A-eGFP; source: measured in living cells; not shown: eGFP, C-terminal, kept
binding (STAT1-GFP E411A): binds

B2: STAT1-GFP Y701A (natural protein, UniProt P42224 1-750, looked up)
chain: B1 chain with A411E, Y701A
notes: Non-clinical control; also called STAT1Y701A-eGFP; source: measured in living cells; not shown: eGFP, C-terminal, kept
binding (STAT1-GFP Y701A): binds

B3: STAT1-GFP R274W (natural protein, UniProt P42224 1-750, looked up)
chain: B1 chain with R274W, A411E
notes: STAT1 with the patient gain-of-function mutation R274W (coiled-coil domain); Mutation reported in patients; also called STAT1R274W-eGFP; source: measured in living cells; not shown: eGFP, C-terminal, kept
binding (STAT1-GFP R274W [1]): binds | binding (STAT1-GFP R274W [2]): binds

B4: STAT1-GFP R321S (natural protein, UniProt P42224 1-750, looked up)
chain: B1 chain with R321S, A411E
notes: Mutation reported in patients; also called STAT1R321S-eGFP; source: measured in living cells; not shown: eGFP, C-terminal, kept
binding (STAT1-GFP R321S): binds

B5: STAT1-GFP N574I (natural protein, UniProt P42224 1-750, looked up)
chain: B1 chain with A411E, N574I
notes: STAT1 with the patient gain-of-function mutation N574I (linker domain); Mutation reported in patients; also called STAT1N574I-eGFP; N571I (as printed in some places); source: measured in living cells; not shown: eGFP, C-terminal, kept
binding (STAT1-GFP N574I): binds

B6: STAT1-GFP T419R (natural protein, UniProt P42224 1-750, looked up)
chain: B1 chain with A411E, T419R
notes: Mutation reported in patients; also called STAT1T419R-eGFP; source: measured in living cells; not shown: eGFP, C-terminal, kept
binding (STAT1-GFP T419R): binds
